Data published in paper PMC7599071.
No constants are given. Whether binding was seen depends on the method and setting. Some results given as binding are weak or reduced against the parent protein; the word gives no strength.

Chains of the proteins cited; added tags and fusions are not shown. Residues count along the entry.
UniProt Q96EQ9, residues 1-511: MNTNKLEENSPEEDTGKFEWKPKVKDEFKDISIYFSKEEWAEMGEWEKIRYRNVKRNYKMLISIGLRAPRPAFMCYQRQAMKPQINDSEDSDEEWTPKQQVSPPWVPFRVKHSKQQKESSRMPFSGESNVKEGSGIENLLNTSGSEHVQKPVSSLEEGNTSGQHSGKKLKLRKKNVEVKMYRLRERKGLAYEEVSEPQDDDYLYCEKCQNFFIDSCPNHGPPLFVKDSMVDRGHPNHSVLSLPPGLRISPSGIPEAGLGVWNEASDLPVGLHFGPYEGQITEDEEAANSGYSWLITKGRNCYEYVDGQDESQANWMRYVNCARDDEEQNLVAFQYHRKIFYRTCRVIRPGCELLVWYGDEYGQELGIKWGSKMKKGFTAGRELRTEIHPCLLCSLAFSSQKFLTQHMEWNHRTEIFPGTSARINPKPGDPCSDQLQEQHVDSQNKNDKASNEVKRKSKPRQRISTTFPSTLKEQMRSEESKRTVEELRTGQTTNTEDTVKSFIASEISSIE

Target: mouse PRDM9 without zinc fingers (aa 1–511) fused to LexA (mouse) (UniProt Q96EQ9)
Test: two-hybrid; screen by Hybrigenics; bait mouse PRDM9 aa 1–511 fused to LexA; mouse cDNA library from testes of 14–16 dpp mice

B1: HELLS clones from the yeast two-hybrid screen (six clones that share residues 30 to 448 of HELLS) (domain or fragment, UniProt Q60848 30-448)
chain: RKMLEEAQKSWDRESTEIRYRRLQHLLEKSNIYSKFLLTKMEQQQLEEQKKKEKLEKKKRSLKLTEGKSLVDGNGEKPVMKKKRGREDESYNISEVMSKEEILSVAKKHKDNEDESSSTTSLCVEDIQKNKDSNSMIKDRLSQTVRQNSKFFFDPVRKCNGQPVPFQQPKHFTGGVMRWYQVEGMEWLRMLWENGINGILADEMGLGKTVQCIATIALMIQRGVPGPFLVCGPLSTLPNWMAEFKRFTPEIPTLLYHGTREDRRKLVKNIHKRQGTLQIHPVVVTSFEIAMRDQNALQHCYWKYLIVDEGHRIKNMKCRLIRELKRFNADNKLLLTGTPLQNNLSELWSLLNFLLPDVFDDLKSFESWFDITSLSETAEDIIAKEREQNVLHMLHQILTPFLLRRLKSDVALEVPPKRE
- binding: binds
